Measurements: paper PMC8001828
These are yes or no findings as the source states them, for the method shown. In cells and extracts the contact can be indirect. Some results given as binding are weak or reduced against the parent protein; the word gives no strength.

The chains behind the UniProt entries cited, without tags or fusion partners.
UniProt O15541: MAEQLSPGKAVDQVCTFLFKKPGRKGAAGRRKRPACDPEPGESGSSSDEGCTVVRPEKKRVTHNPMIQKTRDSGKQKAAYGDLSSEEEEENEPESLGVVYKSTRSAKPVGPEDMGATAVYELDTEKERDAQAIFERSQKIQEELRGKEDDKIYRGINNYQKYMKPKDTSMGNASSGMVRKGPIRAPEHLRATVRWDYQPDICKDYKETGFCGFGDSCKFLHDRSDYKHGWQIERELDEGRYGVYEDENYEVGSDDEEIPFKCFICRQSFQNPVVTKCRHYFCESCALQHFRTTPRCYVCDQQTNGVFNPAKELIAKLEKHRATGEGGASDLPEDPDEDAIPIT

Key:
[1] = biological target: Ku70 (endogenous) (human (endogenous in HeLa)) (UniProt P12956); assay: proximity ligation; Duolink PLA in fixed HeLa cells on endogenous proteins, mouse anti-Ku70 with rabbit anti-Ku80, anti-RNF113A or anti-Spindly
[2] = biological target: Ku70 vWA-NLS-BioID2-HA (human) (UniProt P12956); assay: proximity ligation; Duolink PLA in fixed stable HEK293 lines, mouse anti-HA with rabbit anti-Ku80, anti-RNF113A or anti-Spindly

binding [1]	binding [2]	Molecule
binds		RING finger protein 113A (endogenous, HeLa) (from UniProt O15541 1-343)
	binds	RING finger protein 113A (from UniProt O15541 1-343)
binds		Protein Spindly (endogenous, HeLa) (protein, UniProt Q96EA4 1-605) MEADIITNLRCRLKEAEEERLKAAQYGLQLVESQNELQNQLDKCRNEMMTMTESYEQEKYTLQREVELKSRMLESLSCECEAIKQQQKMHLEKLEEQLSRSHGQEVNELKTKIEKLKVELDEARLSEKQLKHQVDHQKELLSCKSEELRVMSERVQESMSSEMLALQIELTEMESMKTTLKEEVNELQYRQEQLELLITNLMRQVDRLKEEKEEREKEAVSYYNALEKARVANQDLQVQLDQALQQALDPNSKGNSLFAEVEDRRAAMERQLISMKVKYQSLKKQNVFNREQMQRMKLQIATLLQMKGSQTEFEQQERLLAMLEQKNGEIKHLLGEIRNLEKFKNLYDSMESKPSVDSGTLEDNTYYTDLLQMKLDNLNKEIESTKGELSIQRMKALFESQRALDIERKLFANERCLQLSESENMKLRAKLDELKLKYEPEETVEVPVLKKRREVLPVDITTAKDACVNNSALGGEVYRLPPQKEETQSCPNSLEDNNLQLEKSVSIYTPVVSLSPHKNLPVDMQLKKEKKCVKLIGVPADAEALSERSGNTPNSPRLAAESKLQTEVKEGKETSSKLEKETCKKLHPILYVSSKSTPETQCPQQ
